In the supplement of paper PMC10849652:
The list shows a part of the results.

Chains of the proteins cited; added tags and fusions are not shown. Lines headed by an entry give the natural chain unless they say otherwise; changes in a name come on top.
UniProt Q8IY22: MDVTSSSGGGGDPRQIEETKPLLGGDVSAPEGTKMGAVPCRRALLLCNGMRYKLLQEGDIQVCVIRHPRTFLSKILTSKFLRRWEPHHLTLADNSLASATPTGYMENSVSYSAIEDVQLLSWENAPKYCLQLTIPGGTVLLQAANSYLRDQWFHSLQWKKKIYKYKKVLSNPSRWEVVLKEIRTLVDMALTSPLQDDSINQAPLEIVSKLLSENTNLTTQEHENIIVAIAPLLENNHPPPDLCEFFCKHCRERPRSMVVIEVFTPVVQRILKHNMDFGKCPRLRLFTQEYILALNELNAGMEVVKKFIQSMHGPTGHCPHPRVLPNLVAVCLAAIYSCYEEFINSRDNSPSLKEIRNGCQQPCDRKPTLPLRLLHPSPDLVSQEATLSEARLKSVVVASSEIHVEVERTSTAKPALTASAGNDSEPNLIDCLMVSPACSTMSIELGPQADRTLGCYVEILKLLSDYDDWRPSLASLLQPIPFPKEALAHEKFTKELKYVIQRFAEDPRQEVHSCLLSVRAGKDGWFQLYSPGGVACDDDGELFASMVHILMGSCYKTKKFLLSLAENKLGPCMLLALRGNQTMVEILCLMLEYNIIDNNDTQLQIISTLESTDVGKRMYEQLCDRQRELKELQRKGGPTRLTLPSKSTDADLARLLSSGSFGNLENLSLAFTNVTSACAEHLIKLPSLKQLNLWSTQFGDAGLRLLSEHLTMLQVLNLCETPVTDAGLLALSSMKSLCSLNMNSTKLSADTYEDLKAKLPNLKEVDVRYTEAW
UniProt Q00610: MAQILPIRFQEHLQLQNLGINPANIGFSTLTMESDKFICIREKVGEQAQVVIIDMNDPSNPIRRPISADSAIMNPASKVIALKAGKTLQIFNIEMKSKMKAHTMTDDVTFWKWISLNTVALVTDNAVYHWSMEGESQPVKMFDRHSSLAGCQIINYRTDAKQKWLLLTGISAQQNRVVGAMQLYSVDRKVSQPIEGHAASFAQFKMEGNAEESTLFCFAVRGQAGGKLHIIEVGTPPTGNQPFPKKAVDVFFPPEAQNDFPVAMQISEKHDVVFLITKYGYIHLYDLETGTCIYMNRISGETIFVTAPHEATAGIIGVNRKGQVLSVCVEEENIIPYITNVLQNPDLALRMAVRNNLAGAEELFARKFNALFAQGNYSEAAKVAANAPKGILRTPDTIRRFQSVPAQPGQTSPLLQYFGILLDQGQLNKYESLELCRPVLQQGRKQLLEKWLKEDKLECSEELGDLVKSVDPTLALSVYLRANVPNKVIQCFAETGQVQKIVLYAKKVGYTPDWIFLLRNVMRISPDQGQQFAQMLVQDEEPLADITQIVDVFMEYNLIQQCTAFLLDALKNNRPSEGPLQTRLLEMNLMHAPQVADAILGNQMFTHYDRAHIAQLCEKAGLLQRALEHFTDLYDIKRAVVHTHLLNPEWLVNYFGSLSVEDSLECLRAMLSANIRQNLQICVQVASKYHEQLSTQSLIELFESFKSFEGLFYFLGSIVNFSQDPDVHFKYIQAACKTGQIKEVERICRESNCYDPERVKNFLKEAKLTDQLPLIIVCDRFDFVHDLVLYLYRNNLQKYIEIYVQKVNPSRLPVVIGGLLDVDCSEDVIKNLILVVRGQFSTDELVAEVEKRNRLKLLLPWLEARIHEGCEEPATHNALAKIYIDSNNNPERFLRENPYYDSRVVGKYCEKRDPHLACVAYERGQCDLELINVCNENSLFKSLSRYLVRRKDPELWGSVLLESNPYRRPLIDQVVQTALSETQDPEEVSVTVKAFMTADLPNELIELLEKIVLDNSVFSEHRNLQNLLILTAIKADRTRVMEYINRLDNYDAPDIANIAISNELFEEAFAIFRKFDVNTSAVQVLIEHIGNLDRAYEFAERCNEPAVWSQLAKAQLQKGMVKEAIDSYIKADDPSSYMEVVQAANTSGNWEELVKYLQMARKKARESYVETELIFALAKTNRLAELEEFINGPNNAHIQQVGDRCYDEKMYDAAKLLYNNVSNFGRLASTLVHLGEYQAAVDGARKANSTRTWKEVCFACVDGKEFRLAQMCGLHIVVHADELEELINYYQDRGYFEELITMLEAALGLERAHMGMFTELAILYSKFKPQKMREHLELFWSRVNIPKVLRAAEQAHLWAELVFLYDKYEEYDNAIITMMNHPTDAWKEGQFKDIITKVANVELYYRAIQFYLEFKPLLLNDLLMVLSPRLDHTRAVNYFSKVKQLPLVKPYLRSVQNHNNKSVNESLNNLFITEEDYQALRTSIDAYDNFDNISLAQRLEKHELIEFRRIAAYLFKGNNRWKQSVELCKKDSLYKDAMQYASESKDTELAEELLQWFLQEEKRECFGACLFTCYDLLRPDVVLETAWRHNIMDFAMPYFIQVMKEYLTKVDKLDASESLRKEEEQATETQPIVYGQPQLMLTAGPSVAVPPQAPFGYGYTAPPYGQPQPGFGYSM
UniProt Q9NZ45: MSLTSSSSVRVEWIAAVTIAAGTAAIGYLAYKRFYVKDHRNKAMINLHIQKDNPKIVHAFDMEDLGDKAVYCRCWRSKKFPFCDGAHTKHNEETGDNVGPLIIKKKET
UniProt O76031, whole entry, looked up: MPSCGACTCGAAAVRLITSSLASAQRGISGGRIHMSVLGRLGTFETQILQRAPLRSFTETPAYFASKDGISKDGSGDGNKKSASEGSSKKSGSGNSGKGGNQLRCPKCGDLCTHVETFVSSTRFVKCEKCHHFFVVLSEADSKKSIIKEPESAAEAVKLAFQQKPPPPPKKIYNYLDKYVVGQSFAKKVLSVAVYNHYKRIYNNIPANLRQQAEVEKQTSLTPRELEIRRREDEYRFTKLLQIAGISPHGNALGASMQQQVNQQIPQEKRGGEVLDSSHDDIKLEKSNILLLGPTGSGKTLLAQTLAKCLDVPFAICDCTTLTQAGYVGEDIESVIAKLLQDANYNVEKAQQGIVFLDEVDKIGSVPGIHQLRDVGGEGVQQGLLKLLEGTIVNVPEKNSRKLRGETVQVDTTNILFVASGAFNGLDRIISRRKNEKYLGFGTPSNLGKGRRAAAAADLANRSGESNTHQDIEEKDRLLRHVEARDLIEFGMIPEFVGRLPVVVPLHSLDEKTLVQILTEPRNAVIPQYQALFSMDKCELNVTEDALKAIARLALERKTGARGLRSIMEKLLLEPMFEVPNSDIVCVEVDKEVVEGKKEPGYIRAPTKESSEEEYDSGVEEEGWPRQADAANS
UniProt Q8WWK9: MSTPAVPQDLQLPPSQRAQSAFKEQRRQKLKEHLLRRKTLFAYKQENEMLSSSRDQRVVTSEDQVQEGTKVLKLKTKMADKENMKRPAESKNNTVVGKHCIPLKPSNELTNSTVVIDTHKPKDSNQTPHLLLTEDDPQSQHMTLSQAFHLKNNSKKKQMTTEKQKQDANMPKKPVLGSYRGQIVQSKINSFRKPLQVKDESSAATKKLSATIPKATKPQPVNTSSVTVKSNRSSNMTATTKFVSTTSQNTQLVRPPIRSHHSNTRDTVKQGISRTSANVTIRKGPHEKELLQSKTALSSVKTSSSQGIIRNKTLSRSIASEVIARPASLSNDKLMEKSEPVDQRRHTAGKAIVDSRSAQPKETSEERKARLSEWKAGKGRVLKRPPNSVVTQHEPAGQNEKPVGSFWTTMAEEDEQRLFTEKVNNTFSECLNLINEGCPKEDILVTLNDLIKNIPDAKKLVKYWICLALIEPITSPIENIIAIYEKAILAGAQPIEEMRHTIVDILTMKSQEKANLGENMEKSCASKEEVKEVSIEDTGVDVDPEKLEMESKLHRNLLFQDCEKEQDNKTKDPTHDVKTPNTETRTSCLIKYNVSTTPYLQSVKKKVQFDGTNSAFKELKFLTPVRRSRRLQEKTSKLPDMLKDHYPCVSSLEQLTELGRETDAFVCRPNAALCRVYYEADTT
UniProt P09496: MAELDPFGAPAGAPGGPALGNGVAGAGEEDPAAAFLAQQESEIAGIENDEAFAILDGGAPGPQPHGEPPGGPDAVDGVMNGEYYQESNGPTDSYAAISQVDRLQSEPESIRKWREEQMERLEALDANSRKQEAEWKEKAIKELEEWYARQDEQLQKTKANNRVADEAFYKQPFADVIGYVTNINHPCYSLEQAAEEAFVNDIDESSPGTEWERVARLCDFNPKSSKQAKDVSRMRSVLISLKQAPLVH
UniProt O75122: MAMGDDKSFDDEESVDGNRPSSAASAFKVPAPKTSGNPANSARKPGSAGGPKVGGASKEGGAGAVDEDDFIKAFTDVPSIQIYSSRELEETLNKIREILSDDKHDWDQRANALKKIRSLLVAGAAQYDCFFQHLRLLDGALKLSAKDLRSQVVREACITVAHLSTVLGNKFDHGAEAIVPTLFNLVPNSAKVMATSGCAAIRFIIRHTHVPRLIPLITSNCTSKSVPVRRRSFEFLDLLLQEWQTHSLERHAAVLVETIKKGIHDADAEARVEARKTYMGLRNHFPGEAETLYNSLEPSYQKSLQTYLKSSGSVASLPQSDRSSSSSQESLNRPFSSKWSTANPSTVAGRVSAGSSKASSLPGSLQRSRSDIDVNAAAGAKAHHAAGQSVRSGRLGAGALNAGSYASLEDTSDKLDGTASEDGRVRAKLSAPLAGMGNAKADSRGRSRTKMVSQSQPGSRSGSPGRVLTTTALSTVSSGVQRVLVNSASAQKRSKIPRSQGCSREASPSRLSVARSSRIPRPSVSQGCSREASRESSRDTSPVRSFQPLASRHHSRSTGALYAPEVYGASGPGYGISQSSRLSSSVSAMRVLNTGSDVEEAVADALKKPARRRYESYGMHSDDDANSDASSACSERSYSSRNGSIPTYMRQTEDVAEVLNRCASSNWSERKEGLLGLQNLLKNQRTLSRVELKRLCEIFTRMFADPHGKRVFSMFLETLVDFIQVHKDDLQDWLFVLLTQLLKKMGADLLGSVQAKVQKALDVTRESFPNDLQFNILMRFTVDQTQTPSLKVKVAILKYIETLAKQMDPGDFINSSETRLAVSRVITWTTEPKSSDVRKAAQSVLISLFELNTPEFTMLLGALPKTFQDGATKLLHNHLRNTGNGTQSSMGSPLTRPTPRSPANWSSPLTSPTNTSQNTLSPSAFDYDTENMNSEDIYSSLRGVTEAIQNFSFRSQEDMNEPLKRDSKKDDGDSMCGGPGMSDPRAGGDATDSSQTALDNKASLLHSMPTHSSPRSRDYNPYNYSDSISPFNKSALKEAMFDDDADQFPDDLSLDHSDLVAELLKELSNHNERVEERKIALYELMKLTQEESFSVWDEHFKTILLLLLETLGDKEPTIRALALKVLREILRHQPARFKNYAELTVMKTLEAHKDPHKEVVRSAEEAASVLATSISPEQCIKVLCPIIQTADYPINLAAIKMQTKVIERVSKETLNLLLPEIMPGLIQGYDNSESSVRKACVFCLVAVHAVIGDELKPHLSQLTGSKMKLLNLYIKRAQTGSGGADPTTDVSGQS
UniProt Q9NRP2: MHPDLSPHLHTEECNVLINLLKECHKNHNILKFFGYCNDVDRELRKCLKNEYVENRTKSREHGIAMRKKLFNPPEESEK
UniProt P62633: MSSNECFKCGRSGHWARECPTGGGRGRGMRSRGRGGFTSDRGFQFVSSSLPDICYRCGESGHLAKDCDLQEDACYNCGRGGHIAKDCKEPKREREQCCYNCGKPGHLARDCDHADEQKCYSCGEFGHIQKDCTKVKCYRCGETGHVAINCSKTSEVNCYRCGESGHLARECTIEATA
UniProt Q9NRG0: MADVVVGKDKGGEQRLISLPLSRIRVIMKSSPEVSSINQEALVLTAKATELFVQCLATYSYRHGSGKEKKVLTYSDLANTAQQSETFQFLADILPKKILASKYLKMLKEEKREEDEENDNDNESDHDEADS
UniProt Q13112, whole entry, looked up: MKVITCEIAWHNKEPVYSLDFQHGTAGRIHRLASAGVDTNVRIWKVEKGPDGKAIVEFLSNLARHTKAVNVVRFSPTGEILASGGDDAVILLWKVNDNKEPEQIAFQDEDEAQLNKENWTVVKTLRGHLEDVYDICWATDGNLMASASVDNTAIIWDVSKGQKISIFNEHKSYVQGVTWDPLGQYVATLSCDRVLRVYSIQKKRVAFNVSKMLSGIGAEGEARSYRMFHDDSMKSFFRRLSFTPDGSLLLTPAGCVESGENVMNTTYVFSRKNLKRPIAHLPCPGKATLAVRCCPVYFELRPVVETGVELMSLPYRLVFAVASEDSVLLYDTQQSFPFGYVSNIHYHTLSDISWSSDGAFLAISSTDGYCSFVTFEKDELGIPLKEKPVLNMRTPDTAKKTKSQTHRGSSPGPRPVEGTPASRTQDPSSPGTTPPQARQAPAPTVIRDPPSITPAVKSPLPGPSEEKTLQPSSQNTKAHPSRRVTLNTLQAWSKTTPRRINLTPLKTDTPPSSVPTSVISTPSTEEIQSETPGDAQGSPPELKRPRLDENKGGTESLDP
UniProt Q9UQN3, whole entry, looked up: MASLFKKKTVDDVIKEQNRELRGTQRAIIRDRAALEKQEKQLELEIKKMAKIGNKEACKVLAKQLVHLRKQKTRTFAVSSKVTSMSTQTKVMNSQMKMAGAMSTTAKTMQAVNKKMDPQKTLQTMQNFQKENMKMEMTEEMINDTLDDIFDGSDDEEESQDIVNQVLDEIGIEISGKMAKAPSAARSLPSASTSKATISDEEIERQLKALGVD

Tests used:
Test in all cases: log2 fold change, soluble protein after heating vs DMSO (PISA); higher = thermal stabilisation; K562 lysate, 10 uM; active = over 0.2 and 3.5 SD of the protein, either way, in both replicates (recomputed)
[1] = compound: CCCS(=O)(=O)Nc1ccc(F)c(C(=O)c2c[nH]c3ncc(-c4ccc(Cl)cc4)cc23)c1F [vemurafenib]
Procedure, shortened: (§1)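 Soluble protein was defined as the supernatant remaining after 21,000xg for 90 min, following pooling of heated aliquots and adjustment to 0.5% NP-40 at 4°C. Before that, crude K562 extract at 1 mg/mL protein in PBS pH 7.4 with 1 mM MgCl2 was treated with 10 μM compound for 30 min and heated for 3 min across 48°C-58°C. Quantification used TMTpro 16plex LC-MS/MS with channel sums equalised, and values are log-two fold changes in thermal stability relative to solvent controls from duplicates.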

[2] = compound: CCCS(=O)(=O)Nc1ccc(F)c(C(=O)c2c[nH]c3ncc(Cl)cc23)c1F
Procedure, shortened: as §1

[3] = compound: CCN(CCCOc1ccc2c(Nc3cc(CC(=O)Nc4cccc(F)c4)[nH]n3)ncnc2c1)CCOP(=O)(O)O [barasertib]
Procedure, shortened: as §1

[4] = compound: CC[C@@H]1C(=O)N(C)c2cnc(Nc3ccc(C(=O)NC4CCN(C)CC4)cc3OC)nc2N1C1CCCC1
Procedure, shortened: as §1

[5] = compound: CC[C@@H]1C(=O)N(C)c2cnc(Nc3ccc(C(=O)N[C@H]4CC[C@H](N5CCN(CC6CC6)CC5)CC4)cc3OC)nc2N1C(C)C [volasertib]
Procedure, shortened: as §1

[6] = compound: CCn1c(C(=O)N(C2CC2)C2CC2)cc2c3c(ncn3C)c(Nc3cc(C)n(C)n3)nc21
Procedure, shortened: as §1

[7] = compound: CCn1cc(-c2ccnc3[nH]c(-c4cccc(CN(C)C)c4)cc23)c(-c2ccc(NC(=O)N(C)C)cc2)n1
Procedure, shortened: as §1

[8] = compound: CN1CCC(CNc2ccc3ncc(-c4cccc(OC(F)(F)F)c4)n3n2)CC1
Procedure, shortened: as §1

[9] = compound: CN1CCN(CCOc2cc(OC3CCOCC3)c3c(Nc4c(Cl)ccc5c4OCO5)ncnc3c2)CC1 [saracatinib]
Procedure, shortened: as §1

[10] = compound: CN1CCN(c2nc(C3=C(c4c[nH]c5ccccc45)C(=O)NC3=O)c3ccccc3n2)CC1 [sotrastaurin]
Procedure, shortened: as §1

[11] = compound: CN1CC[C@H](c2c(O)cc(O)c3c(=O)cc(-c4ccccc4Cl)oc23)[C@H](O)C1 [alvocidib]
Procedure, shortened: as §1

[12] = compound: CN1CCc2c(c3ccccc3n2Cc2ccc(C(=O)NO)cc2)C1 [Tubastatin A]
Procedure, shortened: as §1

[13] = compound: CNC(=O)C1=CC=CC=C1NC2=NC(=NC=C2Cl)NC3=C(C=C(C=C3)N4CCOCC4)OC
Procedure, shortened: as §1

[14] = compound: CNC(=O)c1ccc(Nc2ncc(C(F)(F)F)c(NCc3nccnc3N(C)S(C)(=O)=O)n2)cc1 [defactinib]
Procedure, shortened: as §1

[15] = compound: CNc1nc(-c2ccc3c(N)n[nH]c3c2)cc(N2C[C@@H](C(=O)NC3CCCCC3)CC[C@H]2C)n1
Procedure, shortened: as §1

[16] = compound: COC(=O)N[C@@H](C)CNc1nccc(-c2cn(C(C)C)nc2-c2cc(Cl)cc(NS(C)(=O)=O)c2F)n1 [encorafenib]
Procedure, shortened: as §1

[17] = compound: COC(=O)[C@H](CCSC)NC(=O)C1=C(C=C(C=C1)NC[C@H](CS)N)C2=CC=CC=C2
Procedure, shortened: as §1

[18] = compound: COc1cc(Nc2ncc3c(n2)-c2ccc(Cl)cc2C(c2c(F)cccc2OC)=NC3)ccc1C(=O)O [alisertib]
Procedure, shortened: as §1

[19] = compound: COc1cc2nc(-c3cc(F)ccc3O)nc(N[C@@H]3CNC[C@H]3C(C)(C)O)c2cc1OC
Procedure, shortened: as §1

[20] = compound: COc1cc2ncnc(Nc3ccc(F)c(Cl)c3)c2cc1OCCCN1CCOCC1 [gefitinib]
Procedure, shortened: as §1

Measured: log2 fold change

CMIP (UniProt Q8IY22)
inactive: [1] 0.009 | [2] 0.023 | [3] 0.04 | [4] -0.055 | [5] -0.057 | [6] 0.043 | [7] -0.043 | [8] -0.054 | [9] 0.014 | [10] 0.017 | [11] 0.002 | [12] -0.161 | [13] 0.001 | [14] 0.061 | [15] -0.015 | [16] 0.078 | [17] 0.025 | [18] -0.012 | [19] -0.016 | [20] 0.007

CLTC (UniProt Q00610)
inactive: [1] 0.046 | [2] 0.014 | [3] 0.045 | [4] -0.069 | [5] -0.083 | [6] 0.02 | [7] 0.096 | [8] -0.069 | [9] 0.014 | [10] 0.01 | [11] 0.03 | [12] -0.046 | [13] -0.028 | [14] 0.031 | [15] -0.03 | [16] -0.007 | [17] 0.095 | [18] 0.018 | [19] 0.004 | [20] -0.023

CISD1 (UniProt Q9NZ45)
inactive: [1] 0.002 | [2] 0.01 | [3] -0.043 | [4] 0.012 | [5] 0.044 | [6] -0.046 | [7] -0.145 | [8] 0.188 | [9] 0.013 | [10] -0.038 | [11] -0.021 | [12] 0.087 | [13] -0.032 | [14] -0.004 | [15] 0.035 | [16] -0.048 | [17] 0.003 | [18] 0.036 | [19] 0.015 | [20] -0.074

CHD7 (UniProt Q9P2D1)
inactive: [1] -0.035 | [2] 0.067 | [3] 0.078 | [4] -0.106 | [5] -0.101 | [6] 0.128 | [7] 0 | [8] -0.09 | [9] -0.055 | [10] 0.03 | [11] 0.009 | [12] -0.251 | [13] 0.026 | [14] 0.05 | [15] 0.069 | [16] 0.058 | [17] 0.093 | [18] 0.03 | [19] 0.003 | [20] 0.022

CLPX (UniProt O76031)
inactive: [1] 0.03 | [2] 0.02 | [3] 0.037 | [4] -0.008 | [5] -0.076 | [6] -0.006 | [7] 0.026 | [8] 0.024 | [9] 0.022 | [10] 0.006 | [11] 0.018 | [12] -0.048 | [13] -0.017 | [14] 0.022 | [15] 0.024 | [16] -0.006 | [17] 0.086 | [18] -0.04 | [19] 0.035 | [20] -0.008

CKAP2 (UniProt Q8WWK9)
inactive: [1] -0.095 | [2] 0.01 | [3] -0.014 | [4] 0.073 | [5] 0.009 | [6] -0.024 | [7] 0.062 | [8] -0.094 | [9] 0.019 | [10] 0.019 | [11] -0.059 | [12] -0.009 | [13] 0.071 | [14] -0.075 | [15] 0.028 | [16] 0.097 | [17] -0.092 | [18] -0.044 | [19] 0.049 | [20] 0.06

CLTA (UniProt P09496)
inactive: [1] -0.046 | [2] -0.029 | [3] 0.164 | [4] -0.044 | [5] 0 | [6] 0.027 | [7] 0.018 | [8] 0.063 | [9] -0.008 | [10] -0.027 | [11] 0.032 | [12] 0.004 | [13] -0.04 | [14] 0.012 | [15] -0.014 | [16] -0.03 | [17] 0.071 | [18] -0.041 | [19] -0.009 | [20] -0.004

CLASP2 isoform 3 (UniProt O75122)
inactive: [1] 0.054 | [2] -0.002 | [3] 0.02 | [4] 0.015 | [5] -0.006 | [6] 0.013 | [7] -0.162 | [8] 0.093 | [9] 0.011 | [10] 0.01 | [11] -0.151 | [12] -0.103 | [13] 0.007 | [14] -0.051 | [15] -0.003 | [16] 0.035 | [17] -0.008 | [18] 0.032 | [19] 0 | [20] -0.007

CMC2 (UniProt Q9NRP2)
inactive: [1] -0.029 | [2] 0.036 | [3] 0.019 | [4] 0.033 | [5] 0.006 | [6] 0.16 | [7] 0.087 | [8] -0.018 | [9] 0.062 | [10] 0.076 | [11] -0.073 | [12] -0.017 | [13] 0.012 | [14] 0.038 | [15] -0.028 | [16] -0.056 | [17] -0.145 | [18] 0.005 | [19] -0.018 | [20] 0.198

CNBP isoform 4 (UniProt P62633)
inactive: [1] -0.05 | [2] 0.045 | [3] -0.032 | [4] -0.118 | [5] 0.086 | [6] 0.034 | [7] -0.063 | [8] 0.039 | [9] 0.17 | [10] -0.334 | [11] 0 | [12] 0.135 | [13] -0.022 | [14] 0.011 | [15] 0.155 | [16] 0.026 | [17] -0.106 | [18] -0.033 | [19] -0.058 | [20] -0.295

CLIC4 (UniProt Q9Y696)
inactive: [1] -0.031 | [2] -0.007 | [3] -0.019 | [4] -0.026 | [5] 0.027 | [6] -0.048 | [7] -0.072 | [8] 0.099 | [9] -0.023 | [10] 0.006 | [11] -0.043 | [12] 0.035 | [13] 0.02 | [14] -0.005 | [15] 0.011 | [16] -0.018 | [17] 0 | [18] -0.016 | [19] 0.014 | [20] -0.014

CLIC2 (UniProt O15247)
inactive: [1] -0.004 | [2] 0.007 | [3] -0.039 | [4] -0.014 | [5] -0.011 | [6] -0.006 | [7] -0.064 | [8] -0.005 | [9] 0.015 | [10] 0 | [11] 0.002 | [12] -0.002 | [13] 0.034 | [14] 0.03 | [15] 0.024 | [16] -0.016 | [17] 0.018 | [18] 0.02 | [19] -0.014 | [20] -0.038

CHRAC1 (UniProt Q9NRG0)
inactive: [1] -0.024 | [2] 0.009 | [3] -0.005 | [4] 0.015 | [5] -0.037 | [6] 0.07 | [7] -0.059 | [8] 0.048 | [9] -0.019 | [10] 0.003 | [11] 0.012 | [12] 0.077 | [13] -0.119 | [14] -0.011 | [15] -0.045 | [16] -0.014 | [17] -0.083 | [18] 0.01 | [19] 0.014 | [20] -0.029

CHAF1B (UniProt Q13112)
inactive: [1] 0.005 | [2] -0.015 | [3] 0.013 | [4] 0.016 | [5] 0.02 | [6] -0.025 | [7] -0.048 | [8] 0.033 | [9] 0.007 | [10] -0.014 | [11] -0.023 | [12] 0.017 | [13] 0.007 | [14] -0.06 | [15] -0.003 | [16] 0.018 | [17] -0.097 | [18] 0.048 | [19] 0.003 | [20] 0.029

CHMP2B (UniProt Q9UQN3)
inactive: [1] -0.016 | [2] 0 | [3] -0.014 | [4] 0.035 | [5] -0.001 | [6] -0.031 | [7] 0.034 | [8] -0.025 | [9] 0.022 | [10] 0.024 | [11] 0.044 | [12] 0.028 | [13] 0.014 | [14] 0.049 | [15] -0.007 | [16] 0.051 | [17] -0.05 | [18] 0.004 | [19] -0.028 | [20] -0.058

CLIC1 (UniProt O00299)
inactive: [1] -0.029 | [2] 0.004 | [3] -0.029 | [4] 0.009 | [5] 0.009 | [6] -0.005 | [7] -0.011 | [8] 0.015 | [9] -0.019 | [10] 0.015 | [11] 0.004 | [12] 0.008 | [13] 0.018 | [14] -0.003 | [15] 0.011 | [16] -0.026 | [17] 0.036 | [18] -0.002 | [19] -0.005 | [20] -0.006
